Data on 1 molecule can be found in publication PMC5406781.

By UniProt entry, the sequences of proteins in these tests, tags left out.
UniProt Q1D2S1: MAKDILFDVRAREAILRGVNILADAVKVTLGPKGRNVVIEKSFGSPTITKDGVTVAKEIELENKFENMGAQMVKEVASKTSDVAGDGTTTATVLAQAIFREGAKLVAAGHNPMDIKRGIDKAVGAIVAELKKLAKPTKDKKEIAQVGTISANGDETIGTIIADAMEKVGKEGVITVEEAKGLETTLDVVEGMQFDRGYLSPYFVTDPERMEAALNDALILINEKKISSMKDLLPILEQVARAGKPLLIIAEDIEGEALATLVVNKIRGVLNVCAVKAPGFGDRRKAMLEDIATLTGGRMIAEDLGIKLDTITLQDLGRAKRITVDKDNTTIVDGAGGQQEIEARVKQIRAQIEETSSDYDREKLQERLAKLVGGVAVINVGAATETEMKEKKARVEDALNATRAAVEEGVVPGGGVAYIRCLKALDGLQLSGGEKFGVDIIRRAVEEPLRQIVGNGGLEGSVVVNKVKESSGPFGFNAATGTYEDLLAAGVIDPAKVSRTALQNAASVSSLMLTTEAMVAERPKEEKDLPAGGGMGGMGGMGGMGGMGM
UniProt Q1D3Y5: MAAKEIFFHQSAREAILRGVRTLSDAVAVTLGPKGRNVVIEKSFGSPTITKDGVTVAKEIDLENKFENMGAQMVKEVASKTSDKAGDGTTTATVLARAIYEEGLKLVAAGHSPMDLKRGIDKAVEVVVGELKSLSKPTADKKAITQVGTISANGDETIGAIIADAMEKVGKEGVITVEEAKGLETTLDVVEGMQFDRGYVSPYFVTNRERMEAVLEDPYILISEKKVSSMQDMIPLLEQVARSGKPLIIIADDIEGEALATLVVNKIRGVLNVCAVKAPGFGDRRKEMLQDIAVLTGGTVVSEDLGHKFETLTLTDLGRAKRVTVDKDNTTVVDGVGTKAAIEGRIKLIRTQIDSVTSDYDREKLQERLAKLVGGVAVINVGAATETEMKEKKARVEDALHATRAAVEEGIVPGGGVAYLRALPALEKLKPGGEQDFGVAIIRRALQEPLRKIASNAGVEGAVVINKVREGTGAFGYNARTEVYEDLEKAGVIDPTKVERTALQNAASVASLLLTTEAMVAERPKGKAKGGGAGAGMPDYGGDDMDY

In assay [1] the target is Myxococcus xanthus DK1622 GroEL1 (Myxococcus xanthus DK1622) (UniProt Q1D2S1). As to the kind of experiment: native gel or EMSA; native PAGE (no SDS or mercaptoethanol, run in ice-water) of extracts of E. coli BL21(DE3) cells expressing GroEL1, GroEL2 or GroES alone, or GroEL1/GroEL2 co-expressed with GroES. Background: In EMSA bound probe runs differently from free probe, usually more slowly.

The target in assay [2] is Myxococcus xanthus DK1622 GroEL2 (Myxococcus xanthus DK1622) (UniProt Q1D3Y5). The assay is described as above.

Results are given in words; binding and its absence hold for the method and conditions named. Some binding calls cover weakened binding; strength is not graded here. Where a sequence is shown, tags or fusion partners need not be part of it.

B1: Myxococcus xanthus DK1622 GroES without His-tag (protein, UniProt Q1D2S2 1-96)
chain: MKIRPLQDRLIVKRVAEENKTKGGLFIPDTAKEKPLEGKVIAVGNGKVQEDGKVRPLDIKAGDTILFSKYAGTEIKLDGEEHLILREEDVLGVIEK
Consider B1, for which the binding result in assay [1] and in assay [2] was “binds” each time.
